Source: the supplement of paper PMC3334620
In all, about 33,000 sequences were measured (“E-score (-0.5 to 0.5)”: median about -0.0059, highest 2% from about 0.26 on). This is one part of the list.

target: T1, Cin5 (UniProt P40917); experiment: PBM E-score (8-mer binding enrichment) (E-score (-0.5 to 0.5)); higher = stronger / more preferred TF binding; settings: protein concentration: 100 nM; construct: GST-full length
T1 sequence: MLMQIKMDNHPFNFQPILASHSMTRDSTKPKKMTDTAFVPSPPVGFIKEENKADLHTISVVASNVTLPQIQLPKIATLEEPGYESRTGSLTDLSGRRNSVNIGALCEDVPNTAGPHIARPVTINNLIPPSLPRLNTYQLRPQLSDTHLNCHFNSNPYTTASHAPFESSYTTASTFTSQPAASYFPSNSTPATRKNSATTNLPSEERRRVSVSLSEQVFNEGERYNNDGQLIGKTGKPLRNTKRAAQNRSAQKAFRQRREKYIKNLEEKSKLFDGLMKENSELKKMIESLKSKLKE
Summary of the method: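 E-scores (a modified Wilcoxon-Mann-Whitney statistic) were assigned by the Universal PBM Analysis Suite to every ungapped eight-base word pooled with its reverse complement. The input came from universal all-10-mer Agilent arrays made double-stranded by primer extension and probed with GST-tagged yeast transcription factors at about 100-200 nM. Fluorescent anti-GST detected bound protein, and masliner normalised the scans.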

Sequence	PBM E-score
TGGGGACA	-0.131
GAGTCTCA	-0.224
AGACATTA	0.0338
ATTGTGAA	0.0824
CAAAGGCG	-0.116
GCAAGGTA	0.0452
CAGCCCCA	0.104
CCTATGAA	-0.0816
GGATACAA	0.105
ATAATCTG	0.153
AGGATCAA	0.0833
ACCCCACC	0.185
CAAGATCA	0.0266
AAATCCCT	-0.114
CGACTCAG	0.00897
ACTTACTA	0.108
CTTTCTAA	0.0224
ATACCCCA	0.233
AGCGGCTC	-0.0582
AATCTGGA	-0.00635
GGCCATAA	0.0497
AATACATC	0.209
CCGGATAC	-0.118
CGAGAGAG	-0.08
CGAACGAG	-0.11

Three neighbouring records out of the list so far, quoted:
Sequence	PBM E-score
ATAATCTG	0.153
AGGATCAA	0.0833
ACCCCACC	0.185

The list goes on.

Sequence	PBM E-score
GGCGGCCC	-0.358
AACATTCA	0.103
GTCGTTGA	-0.0228
CCATTAGG	-0.239
AATACGAC	-0.0777
CTGCTTAC	0.402
AGCCCACG	-0.118
ACAACAGC	-0.0455
CGCGTATC	0.06
ATTCCGGG	0.181
AGGTAATC	0.313
AGTTCTGA	0.0771
AAAGGGCA	-0.174
CAACTTCA	0.05
TGGGAACA	-0.0454
ATAAGACA	0.105
AAGGGAGT	-0.285
CATGAAGA	-0.0234
GTCCTATA	-0.0901
AGACGAAG	-0.0255
CGACGATA	-0.0915
AAATGCAA	0.0178
AACGTGGA	0.0162
ACGCAAAG	0.0785
AAAGTCCT	-0.206

Sequence	PBM E-score
ACGACTTG	-0.164
GTGTCTAA	-0.197
CCCTCGGC	-0.217
GAGTCTCC	-0.0628
CAAATCTA	0.14
GCAAACAC	0.00753
CGCGAACC	-0.129
CGACAAAG	0.167
AAGTTTTC	0.0824
ATTCCTGC	0.116
CTGTTCTC	-0.109
GCACTACC	-0.00786
AAGCAGCG	0.0586
ACAGTCGA	-0.13
GAATGAAC	0.103
AGGTAACA	0.217
GCAATCCC	0.0378
AAAAGAAA	0.0291
GAACCCGA	-0.0808
CAGAACGC	-0.168
GCACGCGA	0.0461
CTAAGTCC	-0.307
CTCACTCC	-0.198
GGGGTGAC	-0.0524
CTGAGTTC	0.114

Sequence	PBM E-score
TACCCAAA	0.00364
CCGCAAAC	-0.0287
ACACTATG	-0.0194
GGGCAACC	-0.13
ACTTGTAT	0.0532
AGCTCAAG	-0.174
CTATAGGC	-0.0859
CTTGAAAG	-0.17
CCACCGAG	-0.0461
GCGCGAGC	-0.0452
CAACAATG	0.066
CGTTCCCA	-0.259
CATATTTC	0.0909
CCGATTGC	0.167
GTGGACAC	-0.0447
CCCCATAG	-0.0251
ATAGTCCA	0.0934
AGCATCAG	0.0622
CCGTCGAA	-0.0555
ACGAGGTA	0.0339
AAATATTA	0.315
ATCAATCC	0.192
CACAGGCC	-0.173
GGGCACAC	-0.165
CATTTCGA	0.17

Part of the list above, reformatted.
Sequence | PBM E-score
ATTCCTGC | 0.116
GCACTACC | -0.00786
GGGGTGAC | -0.0524
CCGATTGC | 0.167

(list continues)

Sequence	PBM E-score
CTGGAATC	-0.0378
TCATTGAA	-0.0998
GAGCGGGA	-0.0794
AAATTATA	0.262
CATCTGGC	-0.0931
CCGGAAGG	-0.0218
ACGTTGAG	0.0678
AAGCCAAA	0.0201
AACTATGC	0.0893
CTTTAACC	-0.0704
ATAAACTG	0.108
CATAGCCC	-0.222
TAGAATAA	0.144
CTTGGTGA	-0.0795
AATTAAGC	0.147
CCTGAGTA	0.113
CTCAGTAA	-0.0762
CTGGCCGC	-0.128
GAATAAGA	0.089
AGCGATGG	-0.142
AAATGCTG	0.0805
GAGACTAC	-0.0932
CCGAAAAC	-0.0641
AAGACTGA	-0.0368
AATGGTAG	0.0654

Sequence	PBM E-score
GACCACAA	-0.147
GTCGCTGA	0.02
CCAATTAC	0.218
CATCAAGG	-0.0793
GTACTAAC	0.14
ACATACAG	0.117
CTCCGTGA	-0.0456
ACCTACAG	0
CTAACTGC	0.0117
CGCAGAGC	-0.131
ATGCCCCC	-0.383
AACCCCCC	-0.468
GCATCTTA	0.225
ATCCCGCA	0.135
CCTATGCG	0.0467
AACCGTCG	-0.152
CATCGTGC	-0.106
AAAAGCGA	0.218
GTCCTTGA	-0.234
ATTATAAG	0.188
GCTTAGGA	-0.0288
GAGGGCAC	-0.282
CCATTACA	0.223
CGGAGCCA	-0.125
ACCCTTTA	-0.0324

Sequence	PBM E-score
ACGGCAAA	0.0612
AGCCCCCC	-0.435
CAATATCG	0.23
ACTTTGGG	-0.0597
AAGGTACG	-0.0381
CAGACTGC	-0.105
GTGAATGA	0.1
AGACCGCG	-0.0722
ACTCGTAG	-0.149
TCTAAGAA	0.164
ACAATTAC	0.143
GCCAGCGC	-0.252
AACCCCTA	0.0787
ATACTTGA	-0.134
AGAGATAG	0.0512
GCCGGGCA	-0.129
ACTGGTTG	-0.0672
CCTATCAG	-0.059
CAGATACC	-0.0906
AGCCGATC	0.0644
ATCAACGG	0.118
AGTCAGAC	-0.0891
